# From patent US5667811A, “Na-K-ATPase inhibiting natriuretic substances” (The Regents of the University of California, priority 1992, dated 1997)
# System: rabbit femoral arteries
# Test: in vitro vasoconstriction assay (vascular reactivity)
# Format: cell-based
# Settings: 10^-5 M nifedipine added after low molecular weight inhibitors
compound,measurement,value
COC(=O)C1=C(C)NC(C)=C(C(=O)OC)C1c1ccccc1[N+](=O)[O-] [nifedipine],reversal of vasoconstriction,vasoconstriction was reversed
